From PubChem BioAssay AID2685 (National Center for Advancing Translational Sciences (NCATS), 2010)
This is one part of the list. Further columns of the screen follow, without active or inactive calls. Most of these compounds were active or inconclusive in the main read-out, so they are no random draw. The note in brackets gives the kind of curve behind each potency; many fits are weak.

Test: qHTS Assay for Lipid Storage Modulators in Drosophila S3 Cells;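 as to cell number change: cells counted by Cell Tracker Red CMTPX staining in the red channel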
Conditions: BODIPY lipid droplet fluorescence, 18-24 h; for cell number change: measured here: cell count max response, cells fed with added oleic acid
In short: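 Drosophila S3 cells loaded with oleic acid (400 uM, as added) and compounds at several concentrations; lipid droplets imaged by 488-nm laser-scanning cytometry, 500–530 nm intensity and object ratio to cell channel. Percent activity normalized to 20 uM Triacsin C.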

[1] = measured here: lipid fluorescence (Fed channel) AC50, cells fed with added oleic acid
[2] = measured here: cell number channel AC50, cells fed with added oleic acid

## Cc1ccc2nsnc2c1S(=O)(=O)N1CCN(Cc2ccc3c(c2)OCO3)CC1
[1]
  AC50: 2.31 µM [rising, partial curve]

## COc1ccc(CN2C(=O)NC(C)(c3ccc(C)cc3)C2=O)cc1F (stereo unspecified)
  cell number change: 112%
[2]
  AC50: 7.31 µM [rising, partial curve, poor fit]
[1]
  AC50: 4.11 µM [rising, single point]

## CCOC(=O)CC1OC(=O)c2cc3c(cc21)C(=O)OC3CC(=O)OCC (stereo unspecified)
  cell number change: -34.6%
[2]
  AC50: 5.17 µM [falling, partial curve, poor fit]
[1]
  AC50: 29.1 µM [falling, single point]

## COc1c(C)cc(Br)cc1C(=O)Nc1ccccc1N1CCN(C(=O)c2ccccc2)CC1
  cell number change: 90.2%
[1]
  AC50: 29.1 µM [rising, partial curve]

## COc1ccc(-c2csc(C)n2)cc1OC
  cell number change: 16.4%
[1]
  AC50: 6.51 µM [rising, single point]

## Cc1nc(C)n(CCNS(=O)(=O)c2ccccc2)n1
  cell number change: 2.52%

## Cn1c(CCN2CCCC2)nc2cc(NS(=O)(=O)c3ccc(Cl)cc3)ccc21
  cell number change: -1.15%
[1]
  AC50: 6.51 µM [rising, single point]

## O=C(C(Cl)Cl)N1CCN(Cc2ccc3c(c2)OCO3)CC1
  cell number change: -2.11%
[1]
  AC50: 25.9 µM [rising, single point]

## Cc1cccc(C)c1N(CC(=O)Nc1cc(Cl)ccc1Oc1ccccc1)S(C)(=O)=O
[2]
  AC50: 6.51 µM [rising, single point]

## CCCOc1ccc(N2CC(C(=O)NCCc3ccc(OC)c(OC)c3)CC2=O)cc1 (stereo unspecified)
  cell number change: -16.3%
[1]
  AC50: 23.1 µM [falling, partial curve, poor fit]

## CC1CCCC(C)N1CCCNC(=O)Cn1ncc2c3ccccc3n(C)c2c1=O (stereo unspecified)
  cell number change: 1.89%
[1]
  AC50: 29.1 µM [rising, single point]

## COCc1cc(/C=N\NC(=O)Cc2ccc(OC)cc2)ccc1OC
  cell number change: 30.8%
[2]
  AC50: 8.2 µM [rising, partial curve]
[1]
  AC50: 2.59 µM [rising, single point]

## CCNC(=O)C1=C(O)c2sccc2N(C)S1(=O)=O
  cell number change: -49.7%

## Cc1cc(C)nc(NS(=O)(=O)c2ccc(N/C=C\C(=O)c3ccc(Cl)cc3)cc2)n1
  cell number change: -50.8%

## O=C(c1ccccc1)c1ccc2n1CCC2C(=O)O (stereo unspecified)
  cell number change: 16%
[1]
  AC50: 23.1 µM [rising, single point]

## COC(=O)C1(C)NC(c2ccccc2F)C2C(=O)N(c3ccccc3)C(=O)C21 (stereo unspecified)
  cell number change: 18.7%
[1]
  AC50: 4.11 µM [rising, full curve, poor fit]

## CCOC(=O)C1C(=O)NC(N2CCOCC2)=NC1c1ccco1 (stereo unspecified)
  cell number change: -22.5%

## COc1ccc(C(=O)O/N=C/c2c(C(F)(F)F)nn(C)c2SCc2ccccc2Cl)cc1
  cell number change: -6.24%
[2]
  AC50: 1.46 µM [falling, partial curve]

## CN1CCN(NC(=O)CC(C)(C)C)CC1
  cell number change: -19.1%
[2]
  AC50: 0.517 µM [rising, single point]

## O=S(=O)(Nc1ccc2c(c1)nc1n2CCOC1)c1ccc(Cl)cc1
  cell number change: 7.54%
[1]
  AC50: 2.31 µM [rising, full curve, poor fit]

## Nc1ncnc(NNC(=O)CNC(=O)c2c(F)cccc2Cl)c1[N+](=O)[O-]
  cell number change: -0.679%
[2]
  AC50: 0.0651 µM [falling, full curve, poor fit]
[1]
  AC50: 0.13 µM [falling, full curve, poor fit]

## COc1c(Br)cc2c(C)c(C(=O)N3CCOCC3)oc2c1Br
  cell number change: 3.24%
[1]
  AC50: 2.31 µM [rising, partial curve]

## Cc1cc2nc(CSc3ccc(Cl)cc3)cc(=O)n2[nH]1
  cell number change: -23.4%

## CCOC(=O)N1CCN(C(=O)c2ccc(C)c(S(=O)(=O)Nc3ccccc3)c2)CC1
[2]
  AC50: 0.103 µM [rising, full curve, poor fit]

## CN(c1ccccc1C(=O)Nc1ccc(F)c(Cl)c1)S(C)(=O)=O
  cell number change: 89.2%
[1]
  AC50: 0.13 µM [falling, full curve, poor fit]

## CN1CCN(Cc2c(O)ccc3c(-c4ccccc4)cc(=O)oc23)CC1
  cell number change: -9.12%
[1]
  AC50: 3.66 µM [falling, single point]

## N#C/C(=C\c1ccc(Cl)c([N+](=O)[O-])c1)c1ccccn1
  cell number change: -4.81%
[1]
  AC50: 4.47 µM [falling, full curve]

## CCCN(CC(=O)Nc1ccccc1OC)C(=O)CCCN1C(=O)c2ccccc2C1=O
[1]
  AC50: 5.17 µM [rising, single point]

## COc1ccc(Br)cc1/C=c1\sc2nc(-c3ccco3)nn2c1=O
  cell number change: -58.7%
[2]
  AC50: 0.92 µM [falling, partial curve]
[1]
  AC50: 1.16 µM [falling, partial curve]

## O=[N+]([O-])c1ccc(N2CCN(S(=O)(=O)c3ccccc3)CC2)cc1NCCN1CCOCC1
[2]
  AC50: 1.64 µM [rising, partial curve]
[1]
  AC50: 0.326 µM [rising, full curve]

## COc1cccc2cc(CC(=O)c3cc(C)ccc3C)c(=O)oc12
  cell number change: 13.5%
[1]
  AC50: 8.2 µM [rising, partial curve]

## CCC[C@@H]1Cc2ccccc2N1C(C)=O
  cell number change: 20.2%
[2]
  AC50: 1.16 µM [falling, single point]

## Cc1cc(NC(=O)CSc2nnnn2-c2ccc(C)c(Cl)c2)no1
  cell number change: 12.7%
[2]
  AC50: 7.31 µM [rising, single point]
[1]
  AC50: 29.1 µM [rising, single point]

## Cc1cc(C)c(S(=O)(=O)N2CCOC2CNC(=O)C(=O)NCCN2CCOCC2)c(C)c1 (stereo unspecified)
  cell number change: -19.4%

## COc1ccccc1N1CCN(CC(=O)c2c(C)[nH]c3cc(C)ccc23)CC1
[1]
  AC50: 0.092 µM [rising, full curve, poor fit]

## C=CCn1cc(/C=N/N2C(=O)C3C4C=CC(C4)C3C2=O)c2ccccc21 (stereo unspecified)
  cell number change: -18.4%
[1]
  AC50: 32.6 µM [falling, single point]

## Cc1ccc(CN2C(=O)C(C)Oc3ccccc32)cc1 (stereo unspecified)
  cell number change: 4.03%

## COc1ccc(O)c(C2(O)C(=O)c3ccccc3C2=O)c1
  cell number change: -22%
[2]
  AC50: 0.184 µM [falling, full curve, poor fit]
[1]
  AC50: 0.164 µM [falling, full curve, poor fit]
